No constants are given. Whether binding was seen depends on the method and setting. In cells and extracts the contact can be indirect. Where a sequence is shown, tags or fusion partners need not be part of it.
Biological target: T1, Halo-tagged ASPP1 CTD (887-1090) (UniProt Q96KQ4)
T1 sequence: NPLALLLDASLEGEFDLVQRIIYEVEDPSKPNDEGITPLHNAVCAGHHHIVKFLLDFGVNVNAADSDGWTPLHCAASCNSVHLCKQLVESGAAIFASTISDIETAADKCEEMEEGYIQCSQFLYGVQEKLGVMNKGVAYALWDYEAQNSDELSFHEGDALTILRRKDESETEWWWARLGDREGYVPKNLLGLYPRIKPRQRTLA
Assay: pull-down; only the target purified

**Q.** Which binding does the source give for “Myc-tagged HCV [1a.1] NS5A ΔPRR(344-363) (from UniProt P26664)” here?
**A.** The binding was “no binding”.
